Data as given in the supplement of paper PMC10849652.
The other results are listed elsewhere or left out.

Protein sequences, listed by entry. Tags and fused reporters are not part of them. Lines headed by an entry give the natural chain unless they say otherwise; changes in a name come on top.
UniProt Q96S44: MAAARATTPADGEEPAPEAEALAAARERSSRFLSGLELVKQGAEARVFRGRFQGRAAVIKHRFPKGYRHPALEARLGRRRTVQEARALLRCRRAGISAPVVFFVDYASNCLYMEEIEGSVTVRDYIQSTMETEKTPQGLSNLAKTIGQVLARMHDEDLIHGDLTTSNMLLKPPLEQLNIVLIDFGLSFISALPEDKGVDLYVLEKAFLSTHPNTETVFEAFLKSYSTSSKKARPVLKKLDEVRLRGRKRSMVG
UniProt Q9NXH8: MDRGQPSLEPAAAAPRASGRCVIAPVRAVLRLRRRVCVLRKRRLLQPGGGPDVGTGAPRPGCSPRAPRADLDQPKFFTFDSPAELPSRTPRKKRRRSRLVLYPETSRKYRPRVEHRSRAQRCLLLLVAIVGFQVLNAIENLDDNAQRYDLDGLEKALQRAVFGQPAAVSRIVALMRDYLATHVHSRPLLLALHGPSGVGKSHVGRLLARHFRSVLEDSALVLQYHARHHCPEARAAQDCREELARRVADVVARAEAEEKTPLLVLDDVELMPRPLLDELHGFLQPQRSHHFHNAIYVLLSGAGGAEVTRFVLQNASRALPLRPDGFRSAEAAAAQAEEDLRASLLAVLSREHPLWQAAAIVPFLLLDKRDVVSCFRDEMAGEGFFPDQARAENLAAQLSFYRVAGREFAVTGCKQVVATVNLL
UniProt O60704: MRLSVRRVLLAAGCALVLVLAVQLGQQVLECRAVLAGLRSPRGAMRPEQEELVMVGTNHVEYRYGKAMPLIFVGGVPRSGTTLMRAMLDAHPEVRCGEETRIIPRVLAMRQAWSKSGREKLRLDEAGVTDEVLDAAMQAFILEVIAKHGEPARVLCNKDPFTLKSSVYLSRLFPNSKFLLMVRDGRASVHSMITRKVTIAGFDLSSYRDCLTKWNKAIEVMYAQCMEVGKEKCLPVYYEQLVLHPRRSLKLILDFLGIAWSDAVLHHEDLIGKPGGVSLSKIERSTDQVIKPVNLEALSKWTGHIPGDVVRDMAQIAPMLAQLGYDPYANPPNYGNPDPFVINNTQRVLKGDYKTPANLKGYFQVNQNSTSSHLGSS
UniProt P20333, whole entry, looked up: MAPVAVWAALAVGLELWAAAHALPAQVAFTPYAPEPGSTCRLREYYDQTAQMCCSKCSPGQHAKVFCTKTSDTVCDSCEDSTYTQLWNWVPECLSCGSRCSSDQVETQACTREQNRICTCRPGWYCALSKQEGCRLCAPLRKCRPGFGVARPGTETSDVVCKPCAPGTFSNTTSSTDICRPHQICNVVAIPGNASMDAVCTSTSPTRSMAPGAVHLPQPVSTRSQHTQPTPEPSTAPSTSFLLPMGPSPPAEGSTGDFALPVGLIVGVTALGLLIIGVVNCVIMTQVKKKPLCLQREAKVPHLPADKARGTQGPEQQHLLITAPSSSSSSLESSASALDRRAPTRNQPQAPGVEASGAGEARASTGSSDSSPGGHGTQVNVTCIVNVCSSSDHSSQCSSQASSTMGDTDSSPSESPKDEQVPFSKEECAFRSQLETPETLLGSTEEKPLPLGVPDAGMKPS
UniProt Q9Y3Q8: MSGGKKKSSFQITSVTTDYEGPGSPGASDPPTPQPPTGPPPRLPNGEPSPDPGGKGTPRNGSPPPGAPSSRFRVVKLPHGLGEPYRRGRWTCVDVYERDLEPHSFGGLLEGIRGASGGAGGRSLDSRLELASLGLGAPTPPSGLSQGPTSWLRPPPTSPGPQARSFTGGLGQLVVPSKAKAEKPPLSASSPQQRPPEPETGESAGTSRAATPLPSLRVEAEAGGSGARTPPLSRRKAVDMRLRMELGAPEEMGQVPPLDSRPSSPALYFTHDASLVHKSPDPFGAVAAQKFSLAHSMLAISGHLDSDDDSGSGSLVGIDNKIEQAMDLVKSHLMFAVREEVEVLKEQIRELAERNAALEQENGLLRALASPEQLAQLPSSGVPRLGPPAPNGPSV
UniProt O75157: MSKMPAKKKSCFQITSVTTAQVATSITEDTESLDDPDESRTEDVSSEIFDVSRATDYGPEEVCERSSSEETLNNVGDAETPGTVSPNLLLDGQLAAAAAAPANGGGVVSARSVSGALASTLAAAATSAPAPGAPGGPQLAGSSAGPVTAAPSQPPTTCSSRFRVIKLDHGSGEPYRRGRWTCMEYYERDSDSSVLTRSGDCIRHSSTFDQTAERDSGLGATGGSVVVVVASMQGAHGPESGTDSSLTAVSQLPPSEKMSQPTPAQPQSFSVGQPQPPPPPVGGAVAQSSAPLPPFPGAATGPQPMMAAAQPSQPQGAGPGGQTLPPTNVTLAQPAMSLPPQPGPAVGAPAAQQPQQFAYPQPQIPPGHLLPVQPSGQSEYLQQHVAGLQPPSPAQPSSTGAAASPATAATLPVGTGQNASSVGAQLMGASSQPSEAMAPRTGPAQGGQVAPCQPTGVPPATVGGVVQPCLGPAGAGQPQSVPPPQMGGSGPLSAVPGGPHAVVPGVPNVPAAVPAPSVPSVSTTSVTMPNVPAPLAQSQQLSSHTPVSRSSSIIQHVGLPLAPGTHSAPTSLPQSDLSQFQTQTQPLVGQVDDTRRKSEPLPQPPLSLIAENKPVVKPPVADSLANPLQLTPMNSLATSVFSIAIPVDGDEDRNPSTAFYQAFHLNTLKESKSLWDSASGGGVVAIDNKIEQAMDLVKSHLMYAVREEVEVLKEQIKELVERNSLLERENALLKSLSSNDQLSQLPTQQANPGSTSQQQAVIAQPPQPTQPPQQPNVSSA
UniProt Q8WW01: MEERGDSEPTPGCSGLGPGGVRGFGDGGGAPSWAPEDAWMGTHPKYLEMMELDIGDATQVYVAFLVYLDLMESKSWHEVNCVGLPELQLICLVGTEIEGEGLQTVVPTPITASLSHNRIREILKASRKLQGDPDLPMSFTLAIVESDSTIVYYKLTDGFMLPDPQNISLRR
UniProt Q9NS69: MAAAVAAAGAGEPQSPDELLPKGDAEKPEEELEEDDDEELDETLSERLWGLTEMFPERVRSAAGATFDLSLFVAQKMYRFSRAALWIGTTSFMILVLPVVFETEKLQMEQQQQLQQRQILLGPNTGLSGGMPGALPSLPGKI
UniProt O75648: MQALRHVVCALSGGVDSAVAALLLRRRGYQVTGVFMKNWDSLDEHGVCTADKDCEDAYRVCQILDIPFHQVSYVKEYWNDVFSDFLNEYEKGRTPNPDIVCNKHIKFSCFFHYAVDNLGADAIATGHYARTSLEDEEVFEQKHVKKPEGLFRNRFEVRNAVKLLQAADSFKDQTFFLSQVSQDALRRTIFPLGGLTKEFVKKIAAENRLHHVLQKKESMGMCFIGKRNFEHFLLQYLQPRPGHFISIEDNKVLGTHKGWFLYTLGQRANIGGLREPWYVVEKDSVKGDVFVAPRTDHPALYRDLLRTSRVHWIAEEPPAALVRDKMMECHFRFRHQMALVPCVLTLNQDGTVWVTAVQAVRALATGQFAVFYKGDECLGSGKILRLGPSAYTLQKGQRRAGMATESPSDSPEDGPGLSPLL
UniProt Q7Z4G4: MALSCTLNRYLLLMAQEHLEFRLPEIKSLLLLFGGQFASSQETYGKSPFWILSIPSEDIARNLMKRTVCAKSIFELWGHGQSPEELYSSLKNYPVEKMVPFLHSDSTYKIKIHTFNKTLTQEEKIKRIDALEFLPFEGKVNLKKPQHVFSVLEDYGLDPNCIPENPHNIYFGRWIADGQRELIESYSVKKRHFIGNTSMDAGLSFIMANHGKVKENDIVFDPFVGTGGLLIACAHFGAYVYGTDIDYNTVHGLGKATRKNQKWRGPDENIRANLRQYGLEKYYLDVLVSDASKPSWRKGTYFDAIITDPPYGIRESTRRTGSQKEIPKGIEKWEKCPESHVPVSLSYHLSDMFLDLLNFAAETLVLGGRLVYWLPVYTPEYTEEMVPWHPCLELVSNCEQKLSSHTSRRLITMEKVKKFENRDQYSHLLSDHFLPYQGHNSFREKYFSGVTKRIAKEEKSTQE
UniProt Q5JU69: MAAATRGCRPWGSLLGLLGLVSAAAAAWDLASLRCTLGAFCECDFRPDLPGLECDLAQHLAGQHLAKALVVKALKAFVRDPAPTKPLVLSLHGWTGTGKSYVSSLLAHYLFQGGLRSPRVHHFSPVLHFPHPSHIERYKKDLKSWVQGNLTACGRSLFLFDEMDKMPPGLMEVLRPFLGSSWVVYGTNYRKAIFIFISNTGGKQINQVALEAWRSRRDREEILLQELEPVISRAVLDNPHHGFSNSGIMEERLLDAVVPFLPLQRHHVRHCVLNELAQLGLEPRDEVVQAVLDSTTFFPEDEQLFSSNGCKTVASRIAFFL
UniProt O14656: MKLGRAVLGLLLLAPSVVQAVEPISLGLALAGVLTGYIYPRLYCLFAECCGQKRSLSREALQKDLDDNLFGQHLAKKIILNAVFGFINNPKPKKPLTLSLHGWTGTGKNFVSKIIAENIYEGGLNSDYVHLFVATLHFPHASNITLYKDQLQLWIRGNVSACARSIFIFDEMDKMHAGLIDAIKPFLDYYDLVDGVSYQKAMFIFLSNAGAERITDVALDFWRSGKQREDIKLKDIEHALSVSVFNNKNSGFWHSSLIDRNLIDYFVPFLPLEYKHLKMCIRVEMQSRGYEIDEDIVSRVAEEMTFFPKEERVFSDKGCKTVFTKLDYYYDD
UniProt P60174, whole entry, looked up: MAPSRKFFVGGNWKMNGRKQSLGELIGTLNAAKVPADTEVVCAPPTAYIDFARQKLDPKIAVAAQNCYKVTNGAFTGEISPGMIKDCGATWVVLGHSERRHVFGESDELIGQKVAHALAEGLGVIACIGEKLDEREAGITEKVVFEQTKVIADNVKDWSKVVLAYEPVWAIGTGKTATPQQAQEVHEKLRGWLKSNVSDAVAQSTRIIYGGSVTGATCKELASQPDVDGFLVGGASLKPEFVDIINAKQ
UniProt Q9BQ61: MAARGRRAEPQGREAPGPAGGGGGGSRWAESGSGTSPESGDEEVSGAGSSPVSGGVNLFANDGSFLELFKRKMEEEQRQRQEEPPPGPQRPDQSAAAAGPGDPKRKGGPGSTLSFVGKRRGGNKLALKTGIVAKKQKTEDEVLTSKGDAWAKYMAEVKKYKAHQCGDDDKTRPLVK
UniProt Q02880: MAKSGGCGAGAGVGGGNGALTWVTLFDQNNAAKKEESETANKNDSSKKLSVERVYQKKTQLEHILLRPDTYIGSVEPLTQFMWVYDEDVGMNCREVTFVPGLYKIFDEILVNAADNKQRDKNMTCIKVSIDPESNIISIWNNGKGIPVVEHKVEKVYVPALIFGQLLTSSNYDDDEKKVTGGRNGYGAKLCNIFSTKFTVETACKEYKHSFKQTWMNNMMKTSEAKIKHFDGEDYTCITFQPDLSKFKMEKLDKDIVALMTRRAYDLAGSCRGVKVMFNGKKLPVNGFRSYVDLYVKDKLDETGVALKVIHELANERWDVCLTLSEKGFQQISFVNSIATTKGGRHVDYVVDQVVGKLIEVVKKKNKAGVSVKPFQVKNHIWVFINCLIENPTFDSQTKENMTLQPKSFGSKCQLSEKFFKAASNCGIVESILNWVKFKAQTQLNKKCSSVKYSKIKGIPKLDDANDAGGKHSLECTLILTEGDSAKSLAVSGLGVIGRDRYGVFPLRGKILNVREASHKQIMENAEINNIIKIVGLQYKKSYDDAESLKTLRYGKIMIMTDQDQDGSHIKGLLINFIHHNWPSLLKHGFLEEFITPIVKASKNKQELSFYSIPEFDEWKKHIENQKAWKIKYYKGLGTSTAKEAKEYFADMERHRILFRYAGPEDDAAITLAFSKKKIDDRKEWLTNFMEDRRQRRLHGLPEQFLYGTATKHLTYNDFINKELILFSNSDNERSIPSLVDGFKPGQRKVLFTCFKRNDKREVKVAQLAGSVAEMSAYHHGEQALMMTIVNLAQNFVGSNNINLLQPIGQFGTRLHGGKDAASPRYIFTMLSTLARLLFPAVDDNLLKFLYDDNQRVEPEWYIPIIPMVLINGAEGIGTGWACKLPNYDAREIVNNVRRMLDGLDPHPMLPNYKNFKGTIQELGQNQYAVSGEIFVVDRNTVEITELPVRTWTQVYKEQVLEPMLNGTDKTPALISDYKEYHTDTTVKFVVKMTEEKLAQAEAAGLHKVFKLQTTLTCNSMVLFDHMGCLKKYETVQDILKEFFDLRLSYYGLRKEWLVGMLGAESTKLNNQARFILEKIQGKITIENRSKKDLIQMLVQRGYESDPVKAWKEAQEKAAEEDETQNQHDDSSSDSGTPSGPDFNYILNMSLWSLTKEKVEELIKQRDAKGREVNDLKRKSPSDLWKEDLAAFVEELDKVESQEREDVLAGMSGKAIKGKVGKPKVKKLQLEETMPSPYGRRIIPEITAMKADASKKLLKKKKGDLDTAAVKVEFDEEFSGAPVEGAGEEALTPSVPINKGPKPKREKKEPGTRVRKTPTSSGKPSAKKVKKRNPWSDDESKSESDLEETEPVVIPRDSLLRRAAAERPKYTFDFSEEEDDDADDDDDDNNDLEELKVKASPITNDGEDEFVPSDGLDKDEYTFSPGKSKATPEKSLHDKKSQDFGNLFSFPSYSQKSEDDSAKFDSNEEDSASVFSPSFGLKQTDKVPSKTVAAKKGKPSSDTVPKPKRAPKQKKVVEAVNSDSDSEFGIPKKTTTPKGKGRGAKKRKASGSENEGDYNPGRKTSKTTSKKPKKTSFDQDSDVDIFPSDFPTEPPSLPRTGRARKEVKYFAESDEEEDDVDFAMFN

compound: C1=CC2=C(C=CC(=C2)/C=C\3/C(=O)NC(=NCC4=CC=CS4)S3)N=C1; test: log2 fold change, soluble protein after heating vs DMSO (PISA); higher = thermal stabilisation; K562 cells, 10 uM, 30 min; active = over 0.2 and 3.5 SD of the protein, either way, in both replicates (recomputed)
How it was run: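 Soluble protein was quantified by TMTpro 16plex LC-MS/MS after channel sums were equalised. It was obtained as the supernatant after 21,000xg for 90 min from pooled aliquots of K562 cells (2×10^6 cells/mL, 10 μM compound, 30 min) heated for 3 min across 48°C-58°C and extracted in PBS with 0.5% NP-40 at 4°C. Thermal stability values are relative to control samples and come from duplicates. They are given as log2 fold changes.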

log2 fold change, inactive:
TP53RK (UniProt Q96S44) -0.015
TOR4A (UniProt Q9NXH8) -0.023
TRIM56 (UniProt Q9BRZ2) -0.028
TRAPPC5 (UniProt Q8IUR0) 0.083
TPST2 (UniProt O60704) 0.021
TRMT13 (UniProt Q9NUP7) -0.072
TPP2 (UniProt P29144) -0.146
TNFRSF1B (UniProt P20333) -0.005
TSC22D4 (UniProt Q9Y3Q8) -0.009
TSC22D2 (UniProt O75157) 0.004
TSEN15 (UniProt Q8WW01) 0.083
TRMT6 (UniProt Q9UJA5) 0.139
TOMM22 (UniProt Q9NS69) 0.067
TRAPPC10 (UniProt P48553) 0.08
TRIM25 (UniProt Q14258) -0.052
TPM3 isoform 2 (UniProt P06753) -0.041
TRAPPC12 (UniProt Q8WVT3) 0.004
TRMU (UniProt O75648) 0.01
TP53BP2 isoform 3 (UniProt Q13625) 0.012
TRMT11 (UniProt Q7Z4G4) 0.013
TOR1AIP2 (UniProt Q8NFQ8) 0.075
TPM3 isoform 4 (UniProt P06753) -0.106
TRPV2 (UniProt Q9Y5S1) -0.009
TPM1 (UniProt H7BYY1) 0.054
TPCN1 isoform 3 (UniProt Q9ULQ1) -0.026
TOR2A (UniProt Q5JU69) -0.045
TRIP4 (UniProt Q15650) -0.023
TOR1AIP1 isoform 3 (UniProt Q5JTV8) -0.022
TOR1A (UniProt O14656) 0.053
TPI1 (UniProt P60174) 0.027
TRIR (UniProt Q9BQ61) -0.071
TOP2B (UniProt Q02880) -0.035

2 records picked at random from the list so far:
log2 fold change, inactive:
TSEN15 (UniProt Q8WW01) 0.083
TRMT6 (UniProt Q9UJA5) 0.139
